In patent US20040236208A1, “Method for evaluation of tissue adhesion level” (SEIKAGAKU CORPORATION, priority 2003, published 2004):

System: scar tissue (between the vertebral body and dura)
Assay: MRI imaging after gadolinium administration, L6 laminectomy adhesion model (Example 1)
Type: in vivo, NZW rabbits
Method: From NZW rabbits (n=10), the vertebral arch of the sixth lumbar vertebra was excised (L6 Laminectomy) (FIG. 1). On Week 4, gadolinium was administered, followed by MRI imaging.
An MRI image in the gadolinium free case is shown on the left side of FIG. 2, while an MRI image when gadolinium was administered is shown on the right side.
FIG. 3 is an enlarged cross-sectional view of the boundary surface between the vertebral body and dura. The diagram on the left side of FIG. 3 is one example in which the length of a site stained by gadolinium in the cross-section of the boundary surface between the vertebral body and dura is regarded as “Grade 0”. In this cross-section of the boundary surface between the vertebral body and dura, the length of the site stained by gadolinium is 0.00 mm.
In such a manner, the site from which the vertebral arch of the sixth lumbar vertebra had been excised was subjected to MRI imaging at intervals of 2.5 mm and the length of the site stained by gadolinium in the cross-section of the boundary surface between the vertebral body and dura was measured.
Thereafter, the spinal column was taken out and was fenestrated to make an opening of about 17 mm on the side (anterior) opposite to the adhesion formed surface (posterior). At the opening portion, a clamp was set and a force necessary for separating the spinal cord with dura was measured (FIG. 5). FIG. 6 illustrates the actual separation work of the spinal cord with dura. The force necessary for separation directly reflects the adhesion level so that it becomes an index of the adhesion level. FIG. 7 illustrates the actual separation work of the spinal cord with dura and one example of the relationship between the displacement and force required therefor.
The correlation between the maximum force necessary for separation and “length of a site stained by gadolinium in the cross-section of the boundary surface between the vertebral body and dura” as measured by MRI was analyzed. The result is shown in FIG. 9 (n=9, p<0.10)(r^2=0.5724).

With `[Gd]` [gadolinium] the “length of the site stained by gadolinium in the cross-section of the boundary surface between the vertebral body and dura” value (example regarded as Grade 0, FIG. 3 left) was 0.00 mm, the “length of the site stained by gadolinium in the cross-section of the boundary surface between the vertebral body and dura” value (example regarded as Grade 1, FIG. 3 centre) was 1.31 mm and the “length of the site stained by gadolinium in the cross-section of the boundary surface between the vertebral body and dura” value (example regarded as Grade 2, FIG. 3 right) was 2.43 mm. For the same compound, the “scar tissue (between the vertebral body and dura) on the MRI image” value (gadolinium administered, fat signals suppressed, Week 4 after L6 laminectomy, FIG. 2 right) was “white highlighted”.
